According to article PMC3320588:
These are yes or no findings as the source states them, for the method shown. Tags and fused reporters may be left off the sequences shown.

The chains behind the UniProt entries cited, without tags or fusion partners. Residues count along the entry.
UniProt P02769, residues 25-607: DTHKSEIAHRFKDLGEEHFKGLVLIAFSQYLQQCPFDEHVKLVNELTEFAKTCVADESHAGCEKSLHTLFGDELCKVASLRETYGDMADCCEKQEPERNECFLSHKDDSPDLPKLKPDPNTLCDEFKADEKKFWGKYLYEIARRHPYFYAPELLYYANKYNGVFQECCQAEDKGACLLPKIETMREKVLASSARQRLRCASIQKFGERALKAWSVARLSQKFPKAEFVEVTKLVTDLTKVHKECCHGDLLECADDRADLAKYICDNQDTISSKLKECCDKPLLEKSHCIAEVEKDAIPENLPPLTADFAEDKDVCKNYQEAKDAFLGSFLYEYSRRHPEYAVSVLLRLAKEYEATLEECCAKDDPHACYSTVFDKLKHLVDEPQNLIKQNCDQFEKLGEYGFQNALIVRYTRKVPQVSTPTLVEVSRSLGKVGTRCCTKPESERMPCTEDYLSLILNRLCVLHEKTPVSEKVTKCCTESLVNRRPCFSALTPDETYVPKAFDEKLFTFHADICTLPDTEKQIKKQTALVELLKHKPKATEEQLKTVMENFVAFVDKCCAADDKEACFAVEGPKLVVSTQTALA

Molecular target: bovine serum albumin coated onto red fluorescent beads (bovine) (UniProt P02769)
Experiment: bead-bead aggregation assay; green fluorescent beads coated with flagella or Tfp mixed with red fluorescent beads coated with BSA, rotary shaker 50 rpm, 2 h, ddH2O; fraction of mixed (yellow) aggregates by confocal microscopy; both purified

B1: flagella isolated by shearing from P. aeruginosa PAO1ΔpilA, coated onto green fluorescent beads (protein, UniProt P72151 1-488)
chain: MALTVNTNIASLNTQRNLNASSNDLNTSLQRLTTGYRINSAKDDAAGLQISNRLSNQISGLNVATRNANDGISLAQTAEGALQQSTNILQRIRDLALQSANGSNSDADRAALQKEVAAQQAELTRISDTTTFGGRKLLDGSFGTTSFQVGSNAYETIDISLQNASASAIGSYQVGSNGAGTVASVAGTATASGIASGTVNLVGGGQVKNIAIAAGDSAKAIAEKMDGAIPNLSARARTVFTADVSGVTGGSLNFDVTVGSNTVSLAGVTSTQDLADQLNSNSSKLGITASINDKGVLTITSATGENVKFGAQTGTATAGQVAVKVQGSDGKFEAAAKNVVAAGTAATTTIVTGYVQLNSPTAYSVSGTGTQASQVFGNASAAQKSSVASVDISTADGAQNAIAVVDNALAAIDAQRADLGAVQNRFKNTIDNLTNISENATNARSRIKDTDFAAETAALSKNQVLQQAGTAILAQANQLPQAVLSLLR
**Q.** For B1, which binding is on record?
**A.** no binding
